{"source": "PubChem BioAssay AID1224828 (NIAID, 2016)", "test": "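Knock-downs that increase or decrease LPS-induced p65 nuclear translocation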 (primary screen)", "cells": "mouse RAW264.7 G9 macrophage reporter cells (GFP-p65, Tnf promoter-mCherry)", "reagent": "siRNA pool against mouse genes, 100 nM", "duration": "2 days siRNA transfection, then 40 min LPS before fixation", "challenge": "LPS (Salmonella minnesota R595) at 10 ng/ml", "measurement": "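Imaged p65 nuclear translocation ratio, normalised to the plate median, converted to robust z-scores and averaged across two replicates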", "direction": "p65 translocation robust z-score: higher = more nuclear NF-kappaB p65 after LPS than the plate median; nuclear/cytoplasmic p65 ratio: higher = more nuclear NF-kappaB p65", "rule for the call": "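Called active when z exceeds 3.3 or falls under -1.56 (median of Tlr4 controls), giving activity score of at least 50; no calls for control wells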", "meaning of the calls": "active = hit (p65 shift raised or lowered); inactive = no clear change", "note": "The deposit covers about 17,000 reagents; below is an unselected part. 762 of all reagents (4.5%) count as active. 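Active calls include both raised and lowered p65 entry, mostly lowered; wells with fewer than 50 cells lack a z-score.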 Raw values are not corrected between plates. No sequences are given here."}
{"target": "Sox1", "p65 translocation robust z-score": -1.16, "nuclear/cytoplasmic p65 ratio, rep 1": 1.22, "nuclear/cytoplasmic p65 ratio, rep 2": 1.14, "low cell count flag": "enough cells to score", "outcome": "inactive"}
{"target": "Ddx59", "nuclear/cytoplasmic p65 ratio, rep 1": 1.48, "nuclear/cytoplasmic p65 ratio, rep 2": 1.59, "low cell count flag": "fewer than 50 cells per well; well left out of scoring", "outcome": "inactive"}
{"target": "Hlf", "p65 translocation robust z-score": -0.67, "nuclear/cytoplasmic p65 ratio, rep 1": 1.61, "nuclear/cytoplasmic p65 ratio, rep 2": 1.38, "low cell count flag": "enough cells to score", "outcome": "inactive"}
{"target": "Stom", "p65 translocation robust z-score": -1.79, "nuclear/cytoplasmic p65 ratio, rep 1": 1.3, "nuclear/cytoplasmic p65 ratio, rep 2": 1.24, "low cell count flag": "enough cells to score", "outcome": "active"}
{"target": "Nos2", "p65 translocation robust z-score": -0.35, "nuclear/cytoplasmic p65 ratio, rep 1": 1.46, "nuclear/cytoplasmic p65 ratio, rep 2": 1.31, "low cell count flag": "enough cells to score", "outcome": "inactive"}
{"target": "Slc6a9", "nuclear/cytoplasmic p65 ratio, rep 1": 1.38, "nuclear/cytoplasmic p65 ratio, rep 2": 1.17, "low cell count flag": "fewer than 50 cells per well; well left out of scoring", "outcome": "inactive"}
{"target": "Anln", "p65 translocation robust z-score": 0.23, "nuclear/cytoplasmic p65 ratio, rep 1": 1.69, "nuclear/cytoplasmic p65 ratio, rep 2": 1.61, "low cell count flag": "enough cells to score", "outcome": "inactive"}
{"target": "Asb10", "p65 translocation robust z-score": -0.35, "nuclear/cytoplasmic p65 ratio, rep 1": 1.57, "nuclear/cytoplasmic p65 ratio, rep 2": 1.44, "low cell count flag": "enough cells to score", "outcome": "inactive"}
{"target": "Akr1c6", "p65 translocation robust z-score": -0.51, "nuclear/cytoplasmic p65 ratio, rep 1": 1.56, "nuclear/cytoplasmic p65 ratio, rep 2": 1.52, "low cell count flag": "enough cells to score", "outcome": "inactive"}
{"target": "Slc26a8", "p65 translocation robust z-score": 0.62, "nuclear/cytoplasmic p65 ratio, rep 1": 1.47, "nuclear/cytoplasmic p65 ratio, rep 2": 1.34, "low cell count flag": "enough cells to score", "outcome": "inactive"}
{"target": "Cfap43", "nuclear/cytoplasmic p65 ratio, rep 1": 1.28, "nuclear/cytoplasmic p65 ratio, rep 2": 1.37, "low cell count flag": "fewer than 50 cells per well; well left out of scoring", "outcome": "inactive"}
{"target": "Tecta", "p65 translocation robust z-score": 0.6, "nuclear/cytoplasmic p65 ratio, rep 1": 1.5, "nuclear/cytoplasmic p65 ratio, rep 2": 1.71, "low cell count flag": "enough cells to score", "outcome": "inactive"}
{"target": "Yju2", "nuclear/cytoplasmic p65 ratio, rep 1": 1.36, "nuclear/cytoplasmic p65 ratio, rep 2": 1.45, "low cell count flag": "fewer than 50 cells per well; well left out of scoring", "outcome": "inactive"}
{"target": "Frem2", "p65 translocation robust z-score": -0.13, "nuclear/cytoplasmic p65 ratio, rep 1": 1.35, "nuclear/cytoplasmic p65 ratio, rep 2": 1.44, "low cell count flag": "enough cells to score", "outcome": "inactive"}
{"target": "Mrpl40", "p65 translocation robust z-score": 1.83, "nuclear/cytoplasmic p65 ratio, rep 1": 2.09, "nuclear/cytoplasmic p65 ratio, rep 2": 1.86, "low cell count flag": "enough cells to score", "outcome": "inactive"}
{"target": "Or52p2", "nuclear/cytoplasmic p65 ratio, rep 1": 1.58, "nuclear/cytoplasmic p65 ratio, rep 2": 1.38, "low cell count flag": "fewer than 50 cells per well; well left out of scoring", "outcome": "inactive"}
{"target": "Gm20558", "nuclear/cytoplasmic p65 ratio, rep 1": 1.3, "nuclear/cytoplasmic p65 ratio, rep 2": 1.26, "low cell count flag": "fewer than 50 cells per well; well left out of scoring", "outcome": "inactive"}
{"target": "Mlec", "p65 translocation robust z-score": 0.33, "nuclear/cytoplasmic p65 ratio, rep 1": 1.36, "nuclear/cytoplasmic p65 ratio, rep 2": 1.59, "low cell count flag": "enough cells to score", "outcome": "inactive"}
{"target": "Arhgef12", "p65 translocation robust z-score": -0.41, "nuclear/cytoplasmic p65 ratio, rep 1": 1.61, "nuclear/cytoplasmic p65 ratio, rep 2": 1.51, "low cell count flag": "enough cells to score", "outcome": "inactive"}
{"target": "Hpvc-ps (retired record)", "p65 translocation robust z-score": -1.58, "nuclear/cytoplasmic p65 ratio, rep 1": 1.51, "nuclear/cytoplasmic p65 ratio, rep 2": 1.33, "low cell count flag": "enough cells to score", "outcome": "active"}
{"target": "Casq2", "p65 translocation robust z-score": -0.23, "nuclear/cytoplasmic p65 ratio, rep 1": 1.54, "nuclear/cytoplasmic p65 ratio, rep 2": 1.62, "low cell count flag": "enough cells to score", "outcome": "inactive"}

Active calls, of those listed so far:
{"target": "Stom", "p65 translocation robust z-score": -1.79, "nuclear/cytoplasmic p65 ratio, rep 1": 1.3, "nuclear/cytoplasmic p65 ratio, rep 2": 1.24, "low cell count flag": "enough cells to score", "outcome": "active"}
{"target": "Hpvc-ps (retired record)", "p65 translocation robust z-score": -1.58, "nuclear/cytoplasmic p65 ratio, rep 1": 1.51, "nuclear/cytoplasmic p65 ratio, rep 2": 1.33, "low cell count flag": "enough cells to score", "outcome": "active"}
